Reference: the supplement of paper PMC10849652
The other results are listed elsewhere or left out.

Protein sequences, listed by entry. Tags and fused reporters are not part of them. Lines headed by an entry give the natural chain unless they say otherwise; changes in a name come on top.
UniProt Q16514: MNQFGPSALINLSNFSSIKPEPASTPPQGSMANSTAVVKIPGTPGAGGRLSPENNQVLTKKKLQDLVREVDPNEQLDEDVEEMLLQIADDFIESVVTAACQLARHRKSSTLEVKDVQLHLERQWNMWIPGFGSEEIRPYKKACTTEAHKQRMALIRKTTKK
UniProt Q6P1X5, whole entry, looked up: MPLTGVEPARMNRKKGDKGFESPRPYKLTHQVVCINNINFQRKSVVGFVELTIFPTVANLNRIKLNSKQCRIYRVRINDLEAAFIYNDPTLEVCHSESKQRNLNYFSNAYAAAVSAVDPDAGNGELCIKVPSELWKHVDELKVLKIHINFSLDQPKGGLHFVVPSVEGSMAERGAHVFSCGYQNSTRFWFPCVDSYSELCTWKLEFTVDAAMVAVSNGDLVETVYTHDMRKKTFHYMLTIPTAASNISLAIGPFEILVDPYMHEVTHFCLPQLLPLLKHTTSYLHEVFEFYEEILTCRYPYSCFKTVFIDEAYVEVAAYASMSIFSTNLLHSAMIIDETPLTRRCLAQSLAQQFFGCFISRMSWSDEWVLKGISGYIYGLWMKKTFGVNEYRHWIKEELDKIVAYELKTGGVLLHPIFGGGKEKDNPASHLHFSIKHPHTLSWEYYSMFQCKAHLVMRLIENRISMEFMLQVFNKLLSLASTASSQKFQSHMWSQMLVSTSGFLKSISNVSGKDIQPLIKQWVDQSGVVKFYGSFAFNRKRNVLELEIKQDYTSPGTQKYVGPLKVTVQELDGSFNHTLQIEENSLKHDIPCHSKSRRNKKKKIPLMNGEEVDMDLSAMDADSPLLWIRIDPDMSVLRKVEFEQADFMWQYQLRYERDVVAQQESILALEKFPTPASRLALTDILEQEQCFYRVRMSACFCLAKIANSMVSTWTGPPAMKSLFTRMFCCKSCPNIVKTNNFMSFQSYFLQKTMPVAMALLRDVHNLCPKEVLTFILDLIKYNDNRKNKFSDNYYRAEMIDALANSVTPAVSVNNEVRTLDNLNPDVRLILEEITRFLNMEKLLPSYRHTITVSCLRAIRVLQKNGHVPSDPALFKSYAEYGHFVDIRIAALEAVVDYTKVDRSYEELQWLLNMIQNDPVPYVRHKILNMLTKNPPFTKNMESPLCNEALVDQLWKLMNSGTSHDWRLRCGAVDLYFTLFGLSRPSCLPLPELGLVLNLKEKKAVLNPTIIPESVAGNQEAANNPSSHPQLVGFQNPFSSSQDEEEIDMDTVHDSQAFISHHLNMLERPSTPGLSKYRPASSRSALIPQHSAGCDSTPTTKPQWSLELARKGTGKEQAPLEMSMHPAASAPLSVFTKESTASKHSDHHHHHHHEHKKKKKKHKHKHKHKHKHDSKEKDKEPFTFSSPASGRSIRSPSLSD
UniProt Q15543, whole entry, looked up: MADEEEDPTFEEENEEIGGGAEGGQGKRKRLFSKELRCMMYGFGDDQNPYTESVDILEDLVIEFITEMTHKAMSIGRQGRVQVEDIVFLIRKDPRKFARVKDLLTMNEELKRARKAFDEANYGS
UniProt Q6ZWJ1: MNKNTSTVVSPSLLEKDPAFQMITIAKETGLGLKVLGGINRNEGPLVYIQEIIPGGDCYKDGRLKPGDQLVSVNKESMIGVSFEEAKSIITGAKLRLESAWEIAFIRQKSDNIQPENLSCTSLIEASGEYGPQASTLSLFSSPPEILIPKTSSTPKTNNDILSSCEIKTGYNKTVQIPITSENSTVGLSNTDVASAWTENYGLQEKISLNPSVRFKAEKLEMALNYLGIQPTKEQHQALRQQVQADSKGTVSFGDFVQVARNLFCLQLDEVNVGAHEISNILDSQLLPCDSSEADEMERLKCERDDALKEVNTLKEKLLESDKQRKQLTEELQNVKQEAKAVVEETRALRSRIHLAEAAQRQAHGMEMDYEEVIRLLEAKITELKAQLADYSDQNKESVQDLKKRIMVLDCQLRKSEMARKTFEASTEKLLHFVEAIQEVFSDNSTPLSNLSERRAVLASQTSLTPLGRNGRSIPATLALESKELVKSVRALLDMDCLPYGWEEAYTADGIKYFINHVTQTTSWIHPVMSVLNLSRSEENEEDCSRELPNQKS
UniProt Q86TJ2: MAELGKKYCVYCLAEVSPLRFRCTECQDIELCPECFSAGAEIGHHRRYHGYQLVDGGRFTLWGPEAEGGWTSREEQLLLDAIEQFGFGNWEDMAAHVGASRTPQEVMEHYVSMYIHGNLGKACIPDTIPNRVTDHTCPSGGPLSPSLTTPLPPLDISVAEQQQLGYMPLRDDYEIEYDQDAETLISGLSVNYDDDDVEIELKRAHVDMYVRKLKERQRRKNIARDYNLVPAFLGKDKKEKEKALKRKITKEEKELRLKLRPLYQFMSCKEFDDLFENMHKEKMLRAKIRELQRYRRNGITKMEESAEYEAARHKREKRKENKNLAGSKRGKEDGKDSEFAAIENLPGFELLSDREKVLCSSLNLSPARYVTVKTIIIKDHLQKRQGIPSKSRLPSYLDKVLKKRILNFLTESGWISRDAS
UniProt O43760: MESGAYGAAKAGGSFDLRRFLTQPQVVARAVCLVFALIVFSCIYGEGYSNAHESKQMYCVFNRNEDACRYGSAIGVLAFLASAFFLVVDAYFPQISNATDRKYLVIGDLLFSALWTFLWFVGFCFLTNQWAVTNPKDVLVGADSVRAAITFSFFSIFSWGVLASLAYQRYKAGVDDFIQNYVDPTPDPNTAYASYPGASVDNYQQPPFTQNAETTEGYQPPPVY
UniProt Q1ZZU3: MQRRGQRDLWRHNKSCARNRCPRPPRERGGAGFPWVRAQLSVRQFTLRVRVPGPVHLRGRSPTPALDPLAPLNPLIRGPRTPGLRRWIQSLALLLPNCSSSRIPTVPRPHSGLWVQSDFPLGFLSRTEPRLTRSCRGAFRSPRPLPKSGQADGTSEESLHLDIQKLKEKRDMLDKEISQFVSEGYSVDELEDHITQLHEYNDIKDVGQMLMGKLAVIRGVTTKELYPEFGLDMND
UniProt Q9NRL3: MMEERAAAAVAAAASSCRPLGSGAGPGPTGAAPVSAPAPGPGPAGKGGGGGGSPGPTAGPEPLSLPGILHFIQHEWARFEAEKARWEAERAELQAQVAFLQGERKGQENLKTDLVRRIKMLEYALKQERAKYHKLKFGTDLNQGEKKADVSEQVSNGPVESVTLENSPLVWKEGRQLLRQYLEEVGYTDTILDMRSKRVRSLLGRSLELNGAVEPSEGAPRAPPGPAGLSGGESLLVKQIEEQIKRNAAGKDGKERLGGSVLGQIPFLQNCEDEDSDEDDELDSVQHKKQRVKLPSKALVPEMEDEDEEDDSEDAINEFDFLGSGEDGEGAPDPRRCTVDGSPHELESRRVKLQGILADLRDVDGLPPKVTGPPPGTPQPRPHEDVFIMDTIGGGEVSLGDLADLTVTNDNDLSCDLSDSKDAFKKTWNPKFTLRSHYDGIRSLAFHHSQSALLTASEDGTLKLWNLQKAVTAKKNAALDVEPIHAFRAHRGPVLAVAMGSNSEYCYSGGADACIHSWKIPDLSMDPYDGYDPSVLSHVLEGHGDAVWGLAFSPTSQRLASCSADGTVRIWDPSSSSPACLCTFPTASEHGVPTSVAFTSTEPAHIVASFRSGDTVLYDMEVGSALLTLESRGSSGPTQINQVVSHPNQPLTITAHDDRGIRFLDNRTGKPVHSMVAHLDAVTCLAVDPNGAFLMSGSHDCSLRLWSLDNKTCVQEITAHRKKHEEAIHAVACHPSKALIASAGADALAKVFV
UniProt Q9H7L9: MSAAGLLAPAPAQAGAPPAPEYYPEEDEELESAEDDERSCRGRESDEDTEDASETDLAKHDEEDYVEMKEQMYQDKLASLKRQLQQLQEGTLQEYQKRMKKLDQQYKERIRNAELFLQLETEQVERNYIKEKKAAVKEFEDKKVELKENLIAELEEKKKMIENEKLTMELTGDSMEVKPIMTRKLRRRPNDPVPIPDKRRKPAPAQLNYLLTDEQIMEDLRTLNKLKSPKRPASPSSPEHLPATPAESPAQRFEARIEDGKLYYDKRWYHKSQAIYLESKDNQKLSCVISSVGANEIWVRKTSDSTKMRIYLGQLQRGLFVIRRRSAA
UniProt O60499: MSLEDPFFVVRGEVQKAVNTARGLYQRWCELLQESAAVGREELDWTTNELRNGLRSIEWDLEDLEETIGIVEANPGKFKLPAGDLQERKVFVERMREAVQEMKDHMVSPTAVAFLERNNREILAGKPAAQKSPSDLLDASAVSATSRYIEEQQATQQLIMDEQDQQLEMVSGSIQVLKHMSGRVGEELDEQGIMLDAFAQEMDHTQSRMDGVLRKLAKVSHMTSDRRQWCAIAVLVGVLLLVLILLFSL
UniProt O15400: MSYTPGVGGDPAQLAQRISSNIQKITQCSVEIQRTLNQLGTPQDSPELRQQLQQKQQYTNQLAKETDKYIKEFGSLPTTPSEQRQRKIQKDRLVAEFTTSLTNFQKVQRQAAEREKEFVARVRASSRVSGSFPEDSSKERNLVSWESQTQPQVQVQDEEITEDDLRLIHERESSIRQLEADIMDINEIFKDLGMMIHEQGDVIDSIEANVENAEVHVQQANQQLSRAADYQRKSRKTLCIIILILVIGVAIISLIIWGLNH
UniProt O60506: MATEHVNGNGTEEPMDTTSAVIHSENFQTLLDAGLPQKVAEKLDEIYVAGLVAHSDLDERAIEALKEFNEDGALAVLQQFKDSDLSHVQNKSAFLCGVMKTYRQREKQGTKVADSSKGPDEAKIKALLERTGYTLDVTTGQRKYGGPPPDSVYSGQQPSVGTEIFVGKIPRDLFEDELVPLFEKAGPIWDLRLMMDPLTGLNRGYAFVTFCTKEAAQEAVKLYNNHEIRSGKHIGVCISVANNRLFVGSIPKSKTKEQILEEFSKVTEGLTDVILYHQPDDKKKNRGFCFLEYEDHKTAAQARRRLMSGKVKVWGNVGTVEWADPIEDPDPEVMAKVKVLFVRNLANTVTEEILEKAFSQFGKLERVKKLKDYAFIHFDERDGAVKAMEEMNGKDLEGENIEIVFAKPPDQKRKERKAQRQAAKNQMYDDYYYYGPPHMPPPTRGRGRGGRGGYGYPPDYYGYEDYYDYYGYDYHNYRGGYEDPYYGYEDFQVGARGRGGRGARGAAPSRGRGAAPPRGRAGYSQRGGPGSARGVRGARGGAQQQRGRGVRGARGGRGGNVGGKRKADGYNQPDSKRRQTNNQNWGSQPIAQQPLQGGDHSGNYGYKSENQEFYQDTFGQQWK
UniProt O75529: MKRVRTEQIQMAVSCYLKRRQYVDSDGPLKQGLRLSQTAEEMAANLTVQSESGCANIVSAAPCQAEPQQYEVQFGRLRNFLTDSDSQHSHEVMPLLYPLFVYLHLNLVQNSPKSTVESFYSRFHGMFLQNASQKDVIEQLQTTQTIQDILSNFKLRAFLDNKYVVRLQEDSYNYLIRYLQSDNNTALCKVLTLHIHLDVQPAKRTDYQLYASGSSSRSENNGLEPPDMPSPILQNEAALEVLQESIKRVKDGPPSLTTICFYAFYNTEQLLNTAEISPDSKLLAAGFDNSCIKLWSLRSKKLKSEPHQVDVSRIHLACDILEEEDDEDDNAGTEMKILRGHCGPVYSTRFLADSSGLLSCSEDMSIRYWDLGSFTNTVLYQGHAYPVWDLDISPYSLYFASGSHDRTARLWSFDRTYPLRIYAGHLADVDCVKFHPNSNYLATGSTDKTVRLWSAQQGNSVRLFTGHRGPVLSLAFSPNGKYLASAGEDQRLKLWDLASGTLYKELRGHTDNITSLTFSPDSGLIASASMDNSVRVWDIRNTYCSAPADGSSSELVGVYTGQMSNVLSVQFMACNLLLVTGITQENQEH

Assays:
Assay in all cases: log2 fold change, soluble protein after heating vs DMSO (PISA); higher = thermal stabilisation; K562 lysate, 10 uM; active = over 0.2 and 3.5 SD of the protein, either way, in both replicates (recomputed)
[1] = compound: C#Cc1cccc(Nc2ncnc3cc(OCCOC)c(OCCOC)cc23)c1 [erlotinib]
Summary of the method: (§1)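 Pellets of K562 cells were dounce-homogenised in PBS pH 7.4 with 1 mM MgCl2, and the crude extract was held at 1 mg/mL protein for a 30 min treatment with 10 μM compound. Aliquots were heated for 3 min over 48°C-58°C and pooled before NP-40 was added to 0.5% at 4°C. The supernatant from 21,000xg for 90 min was quantified by TMTpro 16plex LC-MS/MS with channel sums equalised. Values are reported from duplicates as log-two fold change in thermal stability relative to solvent controls.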

[2] = compound: C/C(=N\NC(=O)C1=CC(=CC=C1)S(=O)(=O)N2CCOCC2)/C3=C(C=CC(=C3)Cl)O
Summary of the method: as §1

[3] = compound: C1=CC(=CC=C1C2=NC3=C(N2)C=C(C=C3)C(=O)N)OC4=CC=C(C=C4)Cl
Summary of the method: as §1

[4] = compound: C1=CC2=C(C=CC(=C2)/C=C\3/C(=O)NC(=NCC4=CC=CS4)S3)N=C1
Summary of the method: as §1

[5] = compound: C1=CC2=NC=CN=C2C=C1/C=C/3\C(=O)NC(=O)S3
Summary of the method: as §1

[6] = compound: C1=CC=C(C=C1)C2=NC(=C(N2)C3=CC=NC=C3)C4=CC(=C(C=C4)Cl)O
Summary of the method: as §1

[7] = compound: C1=CC=C2C(=C1)C3=NNC4=CC=CC(=C43)C2=O
Summary of the method: as §1

[8] = compound: C1CCN(C1)C(=O)NC2=CC=CC(=C2)NC3=NC=C(C(=N3)NCCC4=CN=CN4)Br
Summary of the method: as §1

[9] = compound: C1CN(CCC1(CC2=CC=C(C=C2)Cl)N)C3=NC=NC4=C3C=CN4
Summary of the method: as §1

[10] = compound: C1COCCN1CCN2C3=CC=CC=C3N=C2NC(=O)C4=CC(=CC=C4)[N+](=O)[O-] [IRAK-1-4 Inhibitor I]
Summary of the method: as §1

[11] = compound: C=CC(=O)N1CCC[C@@H](n2nc(-c3ccc(Oc4ccccc4)cc3)c3c(N)ncnc32)C1 [ibrutinib]
Summary of the method: as §1

[12] = compound: CC(=O)c1cnc2ccc(-c3cc(Cl)c(O)c(Cl)c3)nc2c1N[C@H]1CC[C@H](CN(C)C)CC1
Summary of the method: as §1

[13] = compound: CC(C)(C)Cn1c(N)nc2ccc(-c3[nH]c(C(C)(C)C)nc3-c3ccc(F)cc3)nc21 [ralimetinib]
Summary of the method: as §1

[14] = compound: CC(C)(O)CC(=O)NCCn1ccc2ncnc(Nc3ccc(Oc4cccc(C(F)(F)F)c4)c(Cl)c3)c21
Summary of the method: as §1

[15] = compound: CC(C)C1=C2N=C(C=C(N2N=C1)NCC3=CC=CC=C3)NCCCCCCN
Summary of the method: as §1

[16] = compound: CC1=C(C(CC(=O)N1)C2=CC=C(C=C2)C(F)(F)F)C(=O)NC3=C(C=C4C(=C3)C=NN4)F
Summary of the method: as §1

[17] = compound: CC1=C(C2=C(C=C1)C(=O)C3=CC=CC=C3N2CCCN)C
Summary of the method: as §1

[18] = compound: CC1=C(C=C(C=C1)NC(=O)C2=CC(=CC=C2)C(C)(C)C#N)NC3=CC4=C(C=C3)N=CN(C4=O)C
Summary of the method: as §1

[19] = compound: CC1=C(C=C(C=C1)NC(=O)C2=CC(=CC=C2)N(C)C)NC(=O)C3=CC=C(C=C3)O
Summary of the method: as §1

[20] = compound: CC1=CC=C(C=C1)SC2=C3C=C(SC3=CN=C2)C(=O)N
Summary of the method: as §1

Measured: log2 fold change

SUPT4H1 (UniProt P63272)
inactive: [1] 0.013 | [2] -0.024 | [3] 0.014 | [4] 0.017 | [5] 0.068 | [6] 0.019 | [7] -0.037 | [8] 0.117 | [9] 0.036 | [10] -0.001 | [11] -0.029 | [12] -0.017 | [13] -0.097 | [14] -0.028 | [15] -0.02 | [16] -0.018 | [17] -0.018 | [18] 0.05 | [19] 0.002 | [20] -0.016

TAF12 (UniProt Q16514)
inactive: [1] -0.07 | [2] 0.001 | [3] 0.019 | [4] -0.005 | [5] -0.063 | [6] 0.011 | [7] 0.006 | [8] -0.109 | [9] -0.026 | [10] -0.001 | [11] 0.083 | [12] -0.042 | [13] 0.006 | [14] -0.078 | [15] -0.035 | [16] -0.079 | [17] 0.024 | [18] 0.01 | [19] -0.018 | [20] -0.002

TAF2 (UniProt Q6P1X5)
inactive: [1] 0.033 | [2] 0.052 | [3] 0.029 | [4] 0.062 | [5] 0.056 | [6] -0.004 | [7] -0.017 | [8] -0.008 | [9] -0.004 | [10] 0.088 | [11] 0.089 | [12] 0.025 | [13] 0.075 | [14] 0 | [15] -0.033 | [16] -0.046 | [17] 0.068 | [18] 0.005 | [19] -0.028 | [20] 0.03

TAF13 (UniProt Q15543)
inactive: [1] 0.015 | [2] -0.319 | [3] 0.016 | [4] -0.282 | [6] -0.048 | [7] 0.195 | [10] 0.027 | [13] -0.004 | [14] 0.016 | [15] -0.021 | [16] 0.019 | [19] 0.059

SZT2 (UniProt Q5T011)
inactive: [1] 0.043 | [3] -0.089 | [5] 0.134 | [6] -0.013 | [8] -0.004 | [9] 0.016 | [10] 0.014 | [11] -0.225 | [12] -0.102 | [13] 0.14 | [14] -0.07 | [15] -0.135 | [16] 0.076 | [17] 0.126 | [19] -0.134 | [20] 0.105

STXBP4 (UniProt Q6ZWJ1)
inactive: [1] -0.014 | [2] -0.015 | [3] 0.007 | [4] 0.051 | [5] 0.017 | [6] 0.018 | [7] -0.004 | [8] -0.019 | [9] -0.028 | [10] 0.018 | [11] 0.032 | [12] 0.007 | [13] 0 | [14] -0.015 | [15] -0.054 | [16] 0.003 | [17] -0.022 | [18] 0.05 | [19] 0.019 | [20] 0.04

SYK (UniProt P43405)
inactive: [1] -0.004 | [2] -0.007 | [3] 0.017 | [4] 0.039 | [5] -0.033 | [6] 0.021 | [8] -0.013 | [9] -0.038 | [10] 0.053 | [11] -0.09 | [12] -0.041 | [13] -0.025 | [14] -0.103 | [15] 0.051 | [16] -0.055 | [17] -0.114 | [18] -0.001 | [19] 0.027 | [20] -0.065

TADA2B (UniProt Q86TJ2)
inactive: [1] 0.08 | [2] -0.05 | [3] 0.048 | [4] -0.155 | [7] 0.151 | [15] 0.101 | [16] 0.032 | [17] 0.007 | [18] -0.016

SYNGR2 (UniProt O43760)
inactive: [1] -0.003 | [2] -0.049 | [3] 0 | [4] 0.012 | [5] -0.047 | [6] -0.052 | [7] -0.045 | [8] -0.087 | [9] 0.006 | [10] 0.035 | [11] -0.019 | [12] -0.06 | [13] 0.02 | [14] -0.02 | [15] 0.008 | [16] -0.016 | [17] -0.002 | [18] 0.018 | [19] -0.009 | [20] 0.034

SWI5 (UniProt Q1ZZU3)
inactive: [1] 0.013 | [2] -0.013 | [3] 0.026 | [4] 0.091 | [5] -0.157 | [6] 0.009 | [7] 0.006 | [8] -0.237 | [9] 0.37 | [10] 0.052 | [11] 0.104 | [12] -0.039 | [13] 0.024 | [14] -0.032 | [15] 0.036 | [16] 0.095 | [17] 0.009 | [18] 0.064 | [19] -0.017 | [20] -0.051

STRN4 isoform 3 (UniProt Q9NRL3)
inactive: [1] -0.026 | [2] -0.032 | [3] 0.004 | [4] -0.01 | [5] -0.006 | [6] -0.013 | [7] 0.032 | [8] -0.015 | [9] -0.006 | [10] 0.009 | [11] 0.025 | [12] -0.023 | [13] -0.011 | [14] 0.013 | [15] 0 | [16] 0.015 | [17] -0.008 | [18] -0.053 | [19] 0.023 | [20] -0.009

SUDS3 (UniProt Q9H7L9)
inactive: [1] 0.006 | [2] 0.024 | [3] 0.002 | [4] 0.011 | [5] -0.03 | [6] 0.014 | [7] -0.013 | [8] -0.007 | [9] 0.008 | [10] -0.003 | [11] 0.053 | [12] 0.018 | [13] 0.015 | [14] -0.061 | [15] 0.012 | [16] 0.026 | [17] -0.012 | [18] 0.059 | [19] 0.022 | [20] -0.015

SYNJ2BP-COX16, A0A087WYV9
inactive: [1] -0.023 | [2] 0.093 | [3] 0.121 | [4] -0.037 | [5] 0.01 | [6] 0.001 | [7] -0.061 | [8] 0.029 | [9] 0.009 | [10] -0.009 | [11] 0.002 | [12] 0.432 | [13] -0.018 | [14] 0.075 | [15] -0.036 | [16] -0.106 | [17] -0.088 | [18] -0.05 | [19] -0.019 | [20] -0.046

STX10 (UniProt O60499)
inactive: [1] -0.031 | [2] 0.035 | [3] 0.015 | [4] 0.081 | [5] -0.09 | [6] -0.02 | [7] -0.055 | [8] -0.032 | [9] 0.063 | [10] 0.025 | [11] 0.066 | [12] -0.091 | [13] 0.057 | [14] -0.018 | [15] -0.031 | [16] -0.148 | [17] -0.016 | [18] 0.022 | [19] 0.01 | [20] -0.01

STX7 (UniProt O15400)
inactive: [1] 0.004 | [2] 0.013 | [3] 0 | [4] -0.001 | [5] -0.033 | [6] 0.002 | [7] 0.017 | [8] -0.019 | [9] 0.019 | [10] 0.015 | [11] 0.021 | [12] 0.004 | [13] -0.045 | [14] -0.026 | [15] 0.006 | [16] -0.014 | [17] 0.001 | [18] 0.031 | [19] -0.019 | [20] -0.008

SYNCRIP (UniProt O60506)
inactive: [1] -0.018 | [2] -0.004 | [3] -0.019 | [4] 0.002 | [5] -0.018 | [6] 0.013 | [7] 0.02 | [8] 0.013 | [9] 0.005 | [10] -0.008 | [11] -0.004 | [12] -0.2 | [13] -0.009 | [14] -0.004 | [15] -0.002 | [16] -0.015 | [17] -0.012 | [18] -0.036 | [19] 0.018 | [20] 0.018

2 successive records from above:
TADA2B (UniProt Q86TJ2)
inactive: [1] 0.08 | [2] -0.05 | [3] 0.048 | [4] -0.155 | [7] 0.151 | [15] 0.101 | [16] 0.032 | [17] 0.007 | [18] -0.016

SYNGR2 (UniProt O43760)
inactive: [1] -0.003 | [2] -0.049 | [3] 0 | [4] 0.012 | [5] -0.047 | [6] -0.052 | [7] -0.045 | [8] -0.087 | [9] 0.006 | [10] 0.035 | [11] -0.019 | [12] -0.06 | [13] 0.02 | [14] -0.02 | [15] 0.008 | [16] -0.016 | [17] -0.002 | [18] 0.018 | [19] -0.009 | [20] 0.034

Next records follow:

TAF5L (UniProt O75529)
inactive: [1] -0.094 | [2] 0.095 | [3] 0.038 | [4] -0.272 | [5] 0.112 | [6] 0.093 | [7] 0.009 | [8] 0.089 | [9] -0.016 | [10] 0.022 | [11] 0.075 | [13] 0.014 | [14] -0.039 | [15] 0.038 | [16] -0.005 | [17] -0.085 | [18] 0.023 | [19] -0.057
